According to paper PMC7046344:
Results are given in words; binding and its absence hold for the method and conditions named. In cells and extracts the contact can be indirect. Binding calls can cover weak binding; strength is not graded here. Tags and fused reporters may be left off the sequences shown.

The chains behind the UniProt entries cited, without tags or fusion partners. Where a name states a change or a piece, a line headed by the entry shows the natural chain unless it says otherwise.
UniProt Q9V9Y9: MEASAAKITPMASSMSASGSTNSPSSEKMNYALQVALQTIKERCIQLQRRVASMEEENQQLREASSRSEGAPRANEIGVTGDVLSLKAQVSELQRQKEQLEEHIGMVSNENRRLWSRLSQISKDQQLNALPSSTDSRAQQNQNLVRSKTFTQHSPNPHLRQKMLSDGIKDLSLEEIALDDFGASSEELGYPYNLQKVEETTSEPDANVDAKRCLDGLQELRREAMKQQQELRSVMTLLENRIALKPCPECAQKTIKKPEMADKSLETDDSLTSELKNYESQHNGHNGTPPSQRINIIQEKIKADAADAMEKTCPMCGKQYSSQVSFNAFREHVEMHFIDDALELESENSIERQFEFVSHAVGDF

Molecular target: T1, FLAG-Rab11-DN (Drosophila) (UniProt O18335)
T1 sequence: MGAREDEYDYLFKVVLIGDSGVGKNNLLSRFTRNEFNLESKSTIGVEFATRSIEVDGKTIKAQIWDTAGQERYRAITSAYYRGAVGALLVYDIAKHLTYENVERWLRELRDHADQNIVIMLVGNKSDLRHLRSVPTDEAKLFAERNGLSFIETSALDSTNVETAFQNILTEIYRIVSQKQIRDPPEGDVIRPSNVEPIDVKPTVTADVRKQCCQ
Assay: co-IP; lysates of co-transfected S2 cells (20 mM Tris pH 7.0, 150 mM NaCl, 2 mM EDTA, 1% TritonX-100, 1 mM DTT) incubated with anti-FLAG M2 agarose beads on ice, washed with lysis buffer; immunoblot

Q: With SpnF-ΔCC3-myc (from UniProt Q9V9Y9) as the substance, how does the binding read?
A: The binding was “binds”.

Q: How did the binding turn out when SpnF-ΔSCD-myc (from UniProt Q9V9Y9) was run?
A: Its binding is “no binding”.
